Assay results published in the supplement of paper PMC9015667.
Counter-ions that a name gives are not always drawn. Some of the results follow. Single values are uncertain, as repeats are few or missing.

Key:
Assay in all cases: reduction in cell viability relative to untreated/vehicle; higher = more growth inhibition
Conditions in all cases: 200 nM; 72 h
M229P = system: M229P (parental melanoma line)
M229R = system: M229R (matched melanoma line resistant to BRAF inhibitors)
M238P = system: M238P (parental melanoma line)
M238R = system: M238R (matched melanoma line resistant to BRAF inhibitors)
M249P = system: M249P (parental melanoma line)
M249R = system: M249R (matched melanoma line resistant to BRAF inhibitors)
UACC62P = system: UACC62P (parental melanoma line)
UACC62R = system: UACC62R (matched melanoma line resistant to BRAF inhibitors)

Measured: reduction in cell viability

CN(C)c1ccc2nc3ccc(=[N+](C)C)cc-3sc2c1 [Methylene blue]
18.8%: M229R
9.31%: UACC62P
16.7%: M249R
24.3%: M229P
23.2%: M238P
< 0%: all other assays above

COc1ccccc1-c1cccc(-c2c(O)c3cc(C#N)c(Cl)cc3[nH]c2=O)c1
< 0%: all assays above

CC(C)(C)C(=O)OCOP(=O)(COCCn1cnc2c(N)ncnc21)OCOC(=O)C(C)(C)C [Adefovir dipivoxil]
14.1%: UACC62P
37%: UACC62R
< 0%: all other assays above

O=c1n(CCCN2CCN(c3cccc(Cl)c3)CC2)nc2ccccn12 [Trazodone hydrochloride]
< 0%: all assays above

COC(=O)C1=C(C)NC(C)=C(C(=O)OC(C)C)C1c1cccc2nonc12 (stereo not drawn) [Isradipine]
< 0%: all assays above

O=C(NC[C@H]1CN(c2ccc(N3CCOCC3=O)cc2)C(=O)O1)c1ccc(Cl)s1 [Rivaroxaban]
< 0%: all assays above

CN1CCN(CCCN2c3ccccc3Sc3ccc(Cl)cc32)CC1 [Prochlorperazine dimaleate]
< 0%: all assays above

Cc1cccc(-c2nn3c(c2-c2ccnc4ccc(C(N)=O)cc24)CCC3)n1
< 0%: all assays above

CNC(=O)c1ccc(Nc2cc(Nc3ccccc3S(=O)(=O)C(C)C)c3cc[nH]c3n2)nc1
22.2%: M229R
< 0%: all other assays above

CC(C)NCC(O)COc1ccc(CCOCC2CC2)cc1 (stereo not drawn) [Betaxolol]
4%: UACC62P
< 0%: all other assays above

CNC(=O)c1ccccc1Nc1nc(Nc2ccc(N3CCOCC3)cc2OC)ncc1Cl
26.7%: M229R
17.9%: M238P
0.14%: M229P
3.32%: UACC62R
< 0%: all other assays above

C[C@]12CCC(=O)C=C1[C@@H]1C[C@@H]1[C@H]1[C@@H]3[C@@H]4C[C@@H]4[C@@]4(CCC(=O)O4)[C@@]3(C)CC[C@@H]12 [Drospirenone]
< 0%: all assays above

CCCc1cc(=O)[nH]c(=S)[nH]1 [Propylthiouracil]
< 0%: all assays above

Part of the list above in order of molar mass, low to high.
CCCc1cc(=O)[nH]c(=S)[nH]1 [Propylthiouracil]
< 0%: all assays above

CNC(=O)c1ccc(Nc2cc(Nc3ccccc3S(=O)(=O)C(C)C)c3cc[nH]c3n2)nc1
22.2%: M229R
< 0%: all other assays above

CNC(=O)c1ccccc1Nc1nc(Nc2ccc(N3CCOCC3)cc2OC)ncc1Cl
26.7%: M229R
17.9%: M238P
0.14%: M229P
3.32%: UACC62R
< 0%: all other assays above

Continued:

CC(C)(O)Cn1c(NC(=O)c2ccc(-c3cn[nH]c3)s2)nc2cc(CN3CCOCC3)ccc21
44.8%: M249P
72.3%: UACC62P
38.1%: M238R
79.8%: UACC62R
87.5%: M238P
54.2%: M229R
47.8%: M249R
45.5%: M229P

COc1ccc(C(C)=O)c(O)c1 [Paeonol]
3.03%: UACC62P
< 0%: all other assays above

c1cnc2cc3c(cc2n1)[C@@H]1CNC[C@H]3C1 [Varenicline dihydrochloride]
< 0%: all assays above

C=C1/C(=C\C=C2/CCC[C@]3(C)[C@@H]([C@H](C)/C=C/[C@H](C)C(C)C)CC[C@@H]23)C[C@@H](O)C[C@@H]1O [1-alpha-Hydroxyergocalciferol]
7.83%: UACC62P
16.6%: M249P
< 0%: all other assays above

CCOc1cc(CC(=O)N[C@@H](CC(C)C)c2ccccc2N2CCCCC2)ccc1C(=O)O [Repaglinide]
3.24%: UACC62P
< 0%: all other assays above

COc1cc(OC2CCN(C)CC2)ccc1Nc1ncc2c(n1)n(C1CCCC1)c(=O)n2C
< 0%: all assays above

COc1nc(-c2ccc3c(c2)OCO3)n(-c2ccc(NC(=O)CSc3ccccc3)cc2)n1 [Secin H3]
18.8%: M249P
7.78%: UACC62R
24.3%: M238P
< 0%: all other assays above

CC(C)(C)NCC(O)c1ccc(O)c(CO)c1 (stereo not drawn) [Albuterol]
< 0%: all assays above
